Here are results for one substance from patent US20120171123A1, “USES AND COMPOSITIONS FOR TREATMENT OF RHEUMATOID ARTHRITIS” (priority 2006, published 2012).

The test system of the data set is MTX-naïve adult patients with early RA (<3 years). Description: Study J: escalation of injectable medicine from eow to weekly dosing. The following applies: MTX arm escalated placebo injections. It counts as in vivo, human. Here is the method: Study J was a 2-year, double-blind, active comparator-controlled, Phase III study. […] In patients receiving ADA+MTX or MTX monotherapy, the 7.5 mg MTX weekly dosage increased to 20 mg over 8 weeks, as tolerated and as needed. Monotherapy patients received either placebo pills (adalimumab arm) or placebo injections (MTX arm). Efficacy outcomes measured included ACR response, DAS28 remission, major clinical response, and radiographic change from baseline.
MTX optimization was required before starting weekly injections (to 20 mg weekly, maximum). Once initiated, weekly dosing of injectable medicine was to be maintained until end of study. Criteria for identification of dosage escalators were a sequence of 4 consecutive injections for which the interval for every two consecutive injections was ≦10 days, and/or that the date of escalation, defined as the second of the 4 injections, had to be on or after Week 16 in Year 1. […] Data are from the intention-to-treat (ITT) population, with missing data analyzed by non-responder imputation (NRI) for clinical measures and by linear imputation for total Sharp scores (TSS).

As for “adalimumab: human anti-TNF mAb (HUMIRA, Abbott Laboratories), described in U.S. Pat. No. 6,090,382 as D2E7”, the “Dosage Escalators (injectable medicine to weekly), %” value was found to be 22% (Weeks 16-30) and 25% (Year 1 (total)).
